{"sequences": {"note": "By UniProt entry, the sequences of proteins in these tests, tags left out. Where a name states a change or a piece, a line headed by the entry shows the natural chain unless it says otherwise. Residues count along the entry.", "UniProt Q13155": "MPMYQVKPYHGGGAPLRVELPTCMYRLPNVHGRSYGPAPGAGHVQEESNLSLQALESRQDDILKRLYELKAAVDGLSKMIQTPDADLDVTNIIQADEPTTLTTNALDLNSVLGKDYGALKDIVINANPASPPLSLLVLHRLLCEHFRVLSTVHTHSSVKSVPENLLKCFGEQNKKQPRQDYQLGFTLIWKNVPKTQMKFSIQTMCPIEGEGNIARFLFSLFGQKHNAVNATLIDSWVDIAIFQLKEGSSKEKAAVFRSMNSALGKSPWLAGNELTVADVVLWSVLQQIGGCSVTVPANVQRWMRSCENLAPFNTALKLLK", "UniProt O60488": "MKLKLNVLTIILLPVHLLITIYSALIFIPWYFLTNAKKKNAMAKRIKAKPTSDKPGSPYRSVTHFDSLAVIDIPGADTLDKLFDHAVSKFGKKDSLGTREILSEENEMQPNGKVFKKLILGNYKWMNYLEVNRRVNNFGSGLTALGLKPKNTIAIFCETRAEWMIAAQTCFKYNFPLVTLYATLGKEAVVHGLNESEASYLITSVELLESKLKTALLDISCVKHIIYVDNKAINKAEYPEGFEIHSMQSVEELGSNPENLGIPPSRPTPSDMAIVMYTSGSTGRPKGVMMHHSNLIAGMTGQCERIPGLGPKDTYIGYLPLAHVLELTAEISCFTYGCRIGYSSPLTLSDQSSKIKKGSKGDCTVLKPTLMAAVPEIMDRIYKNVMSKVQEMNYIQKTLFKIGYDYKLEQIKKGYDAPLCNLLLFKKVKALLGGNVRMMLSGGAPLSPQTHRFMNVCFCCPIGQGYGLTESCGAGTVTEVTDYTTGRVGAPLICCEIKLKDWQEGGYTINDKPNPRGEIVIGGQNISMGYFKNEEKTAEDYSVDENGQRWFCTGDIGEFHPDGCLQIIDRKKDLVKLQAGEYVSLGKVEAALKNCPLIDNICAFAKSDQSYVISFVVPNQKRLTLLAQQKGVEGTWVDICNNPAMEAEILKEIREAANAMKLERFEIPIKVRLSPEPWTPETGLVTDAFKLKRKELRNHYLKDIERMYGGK", "UniProt Q6ULP2": "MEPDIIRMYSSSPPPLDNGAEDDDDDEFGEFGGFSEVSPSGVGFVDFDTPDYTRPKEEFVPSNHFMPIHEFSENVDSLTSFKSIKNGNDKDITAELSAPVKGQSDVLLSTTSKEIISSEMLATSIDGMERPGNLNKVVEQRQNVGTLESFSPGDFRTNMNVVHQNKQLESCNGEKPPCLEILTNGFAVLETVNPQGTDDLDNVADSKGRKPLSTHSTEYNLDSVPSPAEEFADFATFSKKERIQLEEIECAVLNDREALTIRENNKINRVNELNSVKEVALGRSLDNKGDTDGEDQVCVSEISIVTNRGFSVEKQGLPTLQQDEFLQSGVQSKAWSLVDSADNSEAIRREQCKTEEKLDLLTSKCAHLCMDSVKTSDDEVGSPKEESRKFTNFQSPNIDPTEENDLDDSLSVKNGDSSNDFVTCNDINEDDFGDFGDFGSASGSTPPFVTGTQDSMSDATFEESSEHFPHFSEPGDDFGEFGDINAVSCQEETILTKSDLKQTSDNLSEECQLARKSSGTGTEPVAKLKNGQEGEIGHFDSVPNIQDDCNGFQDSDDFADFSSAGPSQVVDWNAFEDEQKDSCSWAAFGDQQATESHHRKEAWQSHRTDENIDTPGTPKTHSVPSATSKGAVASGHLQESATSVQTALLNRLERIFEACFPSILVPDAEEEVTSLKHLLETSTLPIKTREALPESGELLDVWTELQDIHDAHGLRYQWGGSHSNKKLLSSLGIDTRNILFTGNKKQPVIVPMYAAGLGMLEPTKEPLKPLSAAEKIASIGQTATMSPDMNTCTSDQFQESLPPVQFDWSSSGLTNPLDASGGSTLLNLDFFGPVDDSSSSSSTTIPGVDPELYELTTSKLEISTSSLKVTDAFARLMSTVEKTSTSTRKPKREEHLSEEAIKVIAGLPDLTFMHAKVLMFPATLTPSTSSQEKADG", "UniProt O95081": "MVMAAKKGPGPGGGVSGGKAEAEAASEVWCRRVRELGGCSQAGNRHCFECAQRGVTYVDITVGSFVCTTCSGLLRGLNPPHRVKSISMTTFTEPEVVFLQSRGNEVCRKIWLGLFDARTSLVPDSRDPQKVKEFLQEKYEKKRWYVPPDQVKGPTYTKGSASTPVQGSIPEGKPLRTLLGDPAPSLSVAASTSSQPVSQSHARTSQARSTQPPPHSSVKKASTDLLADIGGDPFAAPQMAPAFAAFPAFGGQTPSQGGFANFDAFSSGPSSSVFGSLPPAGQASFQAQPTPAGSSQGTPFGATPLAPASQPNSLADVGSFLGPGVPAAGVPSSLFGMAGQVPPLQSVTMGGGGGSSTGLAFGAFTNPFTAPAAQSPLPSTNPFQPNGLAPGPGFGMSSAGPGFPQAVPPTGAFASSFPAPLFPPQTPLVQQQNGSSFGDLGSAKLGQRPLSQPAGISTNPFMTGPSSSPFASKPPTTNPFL", "UniProt Q92667": "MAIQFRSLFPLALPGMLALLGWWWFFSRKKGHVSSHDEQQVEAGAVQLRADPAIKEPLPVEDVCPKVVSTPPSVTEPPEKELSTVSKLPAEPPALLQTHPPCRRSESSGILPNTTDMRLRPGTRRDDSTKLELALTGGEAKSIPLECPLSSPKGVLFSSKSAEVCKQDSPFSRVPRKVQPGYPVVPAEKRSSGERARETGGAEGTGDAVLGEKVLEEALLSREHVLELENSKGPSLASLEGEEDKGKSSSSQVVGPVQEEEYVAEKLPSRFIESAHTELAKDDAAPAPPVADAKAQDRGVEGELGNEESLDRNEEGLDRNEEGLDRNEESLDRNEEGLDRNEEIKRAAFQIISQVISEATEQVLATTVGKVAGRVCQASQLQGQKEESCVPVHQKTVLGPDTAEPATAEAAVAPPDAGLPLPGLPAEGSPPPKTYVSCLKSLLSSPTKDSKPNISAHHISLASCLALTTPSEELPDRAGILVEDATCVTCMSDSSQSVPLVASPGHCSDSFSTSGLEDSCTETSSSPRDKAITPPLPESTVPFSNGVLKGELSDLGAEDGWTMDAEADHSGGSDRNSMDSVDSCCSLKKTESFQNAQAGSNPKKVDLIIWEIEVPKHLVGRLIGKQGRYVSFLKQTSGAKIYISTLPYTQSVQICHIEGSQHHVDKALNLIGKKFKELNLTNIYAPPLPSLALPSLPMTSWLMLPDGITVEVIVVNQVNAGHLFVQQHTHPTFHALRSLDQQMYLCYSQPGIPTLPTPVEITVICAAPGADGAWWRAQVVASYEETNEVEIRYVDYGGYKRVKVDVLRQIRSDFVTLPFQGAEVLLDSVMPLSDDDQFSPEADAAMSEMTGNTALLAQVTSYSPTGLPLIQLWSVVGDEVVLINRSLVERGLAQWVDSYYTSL", "UniProt Q09666, 1880-1904": "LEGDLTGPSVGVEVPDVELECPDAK", "UniProt Q9NRZ5, 257-276": "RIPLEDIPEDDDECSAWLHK", "UniProt O43572": "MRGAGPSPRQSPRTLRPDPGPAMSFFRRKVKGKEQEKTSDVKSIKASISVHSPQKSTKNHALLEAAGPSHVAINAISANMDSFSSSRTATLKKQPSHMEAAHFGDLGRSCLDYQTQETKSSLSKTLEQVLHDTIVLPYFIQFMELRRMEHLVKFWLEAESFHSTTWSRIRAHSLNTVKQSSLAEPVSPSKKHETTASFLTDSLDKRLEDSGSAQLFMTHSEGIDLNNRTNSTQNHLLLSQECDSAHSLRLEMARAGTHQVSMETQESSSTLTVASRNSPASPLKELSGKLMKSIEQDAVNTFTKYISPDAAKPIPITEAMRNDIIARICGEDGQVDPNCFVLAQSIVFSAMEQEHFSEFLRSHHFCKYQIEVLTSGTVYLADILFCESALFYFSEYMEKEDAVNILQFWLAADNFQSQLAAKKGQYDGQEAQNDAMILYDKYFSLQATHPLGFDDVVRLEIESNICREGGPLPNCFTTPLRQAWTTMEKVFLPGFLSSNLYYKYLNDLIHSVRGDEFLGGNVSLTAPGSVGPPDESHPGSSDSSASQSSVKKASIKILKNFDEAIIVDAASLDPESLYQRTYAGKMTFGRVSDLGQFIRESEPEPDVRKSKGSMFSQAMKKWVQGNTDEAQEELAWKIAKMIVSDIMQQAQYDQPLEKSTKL", "UniProt P49189": "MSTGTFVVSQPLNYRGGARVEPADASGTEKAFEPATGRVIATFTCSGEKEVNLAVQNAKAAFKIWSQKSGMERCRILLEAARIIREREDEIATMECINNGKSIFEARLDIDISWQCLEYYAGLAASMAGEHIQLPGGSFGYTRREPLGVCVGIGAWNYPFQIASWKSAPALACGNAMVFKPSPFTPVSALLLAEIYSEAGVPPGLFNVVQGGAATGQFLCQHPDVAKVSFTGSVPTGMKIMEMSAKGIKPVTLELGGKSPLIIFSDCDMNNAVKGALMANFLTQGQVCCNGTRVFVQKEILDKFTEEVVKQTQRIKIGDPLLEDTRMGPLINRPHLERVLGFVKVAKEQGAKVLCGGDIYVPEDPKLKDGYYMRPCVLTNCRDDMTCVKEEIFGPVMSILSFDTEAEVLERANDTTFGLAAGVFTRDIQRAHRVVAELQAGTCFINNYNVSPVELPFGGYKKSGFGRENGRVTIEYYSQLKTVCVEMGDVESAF", "UniProt P55265": "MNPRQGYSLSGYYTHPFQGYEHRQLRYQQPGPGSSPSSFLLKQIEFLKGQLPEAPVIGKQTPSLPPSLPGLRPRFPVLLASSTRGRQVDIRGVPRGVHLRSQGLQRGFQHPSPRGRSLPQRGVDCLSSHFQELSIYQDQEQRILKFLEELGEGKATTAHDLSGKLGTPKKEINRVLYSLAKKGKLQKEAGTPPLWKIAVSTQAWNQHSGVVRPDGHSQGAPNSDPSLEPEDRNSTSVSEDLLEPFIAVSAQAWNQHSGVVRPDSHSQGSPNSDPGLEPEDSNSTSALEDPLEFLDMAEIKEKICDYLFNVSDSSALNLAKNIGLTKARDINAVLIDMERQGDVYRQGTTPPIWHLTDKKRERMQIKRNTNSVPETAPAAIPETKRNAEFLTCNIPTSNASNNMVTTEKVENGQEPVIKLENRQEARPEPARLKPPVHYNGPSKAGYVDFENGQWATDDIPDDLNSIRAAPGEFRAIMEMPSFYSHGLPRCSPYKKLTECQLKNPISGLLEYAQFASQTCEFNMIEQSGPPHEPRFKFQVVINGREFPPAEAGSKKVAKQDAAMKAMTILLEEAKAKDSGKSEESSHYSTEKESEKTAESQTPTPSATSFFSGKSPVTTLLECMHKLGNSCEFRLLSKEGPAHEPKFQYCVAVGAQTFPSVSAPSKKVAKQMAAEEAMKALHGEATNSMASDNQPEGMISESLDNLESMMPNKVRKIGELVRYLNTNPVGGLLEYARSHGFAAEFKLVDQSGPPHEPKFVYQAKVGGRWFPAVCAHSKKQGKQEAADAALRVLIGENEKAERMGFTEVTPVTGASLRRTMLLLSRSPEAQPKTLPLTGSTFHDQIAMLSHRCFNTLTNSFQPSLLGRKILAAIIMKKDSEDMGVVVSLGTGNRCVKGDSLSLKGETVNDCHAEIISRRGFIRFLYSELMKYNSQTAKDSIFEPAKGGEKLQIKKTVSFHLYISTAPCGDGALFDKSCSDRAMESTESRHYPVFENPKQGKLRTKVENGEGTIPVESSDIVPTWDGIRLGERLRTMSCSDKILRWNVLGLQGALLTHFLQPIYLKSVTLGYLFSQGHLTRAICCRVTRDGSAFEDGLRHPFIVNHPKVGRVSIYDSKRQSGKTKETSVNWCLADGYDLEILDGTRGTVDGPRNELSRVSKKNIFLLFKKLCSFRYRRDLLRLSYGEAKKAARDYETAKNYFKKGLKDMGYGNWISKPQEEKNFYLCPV", "UniProt Q9NXW9": "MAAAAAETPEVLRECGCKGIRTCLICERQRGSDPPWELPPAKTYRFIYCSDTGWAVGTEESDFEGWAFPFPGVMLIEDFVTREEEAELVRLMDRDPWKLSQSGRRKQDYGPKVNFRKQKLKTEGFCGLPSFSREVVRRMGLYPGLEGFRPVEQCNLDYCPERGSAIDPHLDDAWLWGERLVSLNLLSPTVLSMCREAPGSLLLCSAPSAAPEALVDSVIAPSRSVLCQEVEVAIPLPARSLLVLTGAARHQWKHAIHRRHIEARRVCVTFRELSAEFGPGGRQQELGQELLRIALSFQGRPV", "UniProt Q9NZ32": "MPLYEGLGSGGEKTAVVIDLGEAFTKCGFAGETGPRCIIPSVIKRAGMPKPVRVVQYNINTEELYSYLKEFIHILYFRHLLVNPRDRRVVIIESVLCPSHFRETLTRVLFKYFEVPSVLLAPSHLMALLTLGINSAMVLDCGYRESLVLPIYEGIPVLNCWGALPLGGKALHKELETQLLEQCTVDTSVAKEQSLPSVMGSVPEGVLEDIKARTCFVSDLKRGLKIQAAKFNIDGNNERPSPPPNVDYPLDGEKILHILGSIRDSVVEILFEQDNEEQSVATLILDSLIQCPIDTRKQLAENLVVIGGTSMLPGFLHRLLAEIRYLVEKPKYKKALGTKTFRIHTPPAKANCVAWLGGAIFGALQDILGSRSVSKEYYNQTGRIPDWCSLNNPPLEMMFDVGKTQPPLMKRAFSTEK"}, "source": "the supplement of paper PMC11732987", "about": "“Enantioselective OTUD7B fragment discovery through chemoproteomics screening and high-throughput optimisation” (Communications Chemistry, 2025)", "note": "This is one part of the list. The data scatter; read single values as rough.", "data": [{"compound": "ClCC(=O)N[C@H]1CCCc2ccccc12", "test": "log2 mean competition ratio of IA-DTB cysteine labelling (DMSO/compound) (log2 ratio); higher = stronger cysteine engagement by compound", "conditions": "50 µM; treatment time: 4 h; cell line lysate: HEK293T", "description": "(§1)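 IA-DTB competitive cysteine chemoproteomics in HEK293T RIPA lysate. Lysates were treated with compound 29 or 30 at 50 or 200 µM for 4 h, then IA-DTB (500 µM, 1 h), trypsin-digested, NeutrAvidin-enriched and analysed by diaPASEF. Competition ratio = intensity DMSO / intensity compound (n=4 treated, n=64 DMSO); binding: mean log2 CR ≥ 1 and p ≤ 0.05 plus QC filters. Target is the cysteine site.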", "values": [{"target": "AIMP2 C143 (UniProt Q13155)", "log2 mean competition ratio": 0.451}, {"target": "ACSL4 C157 (UniProt O60488)", "log2 mean competition ratio": -0.193}, {"target": "ANKHD1 C535", "log2 mean competition ratio": 0.386}, {"target": "AFTPH C511 (UniProt Q6ULP2)", "log2 mean competition ratio": -0.17}, {"target": "AGFG2 C30 (UniProt O95081)", "log2 mean competition ratio": 0.389}, {"target": "AKAP1 C389 (UniProt Q92667)", "log2 mean competition ratio": 0.157}, {"target": "AHNAK C1900(C1967) (UniProt Q09666)", "log2 mean competition ratio": -0.02}, {"target": "AHCYL1 C106 (UniProt O43865)", "log2 mean competition ratio": 0.281}, {"target": "AGPAT4 C270 (UniProt Q9NRZ5)", "log2 mean competition ratio": 1.03}, {"target": "AHCYL2 C187 (UniProt Q96HN2)", "log2 mean competition ratio": -0.217}, {"target": "AMOT C781 (UniProt Q4VCS5)", "log2 mean competition ratio": -0.0723}, {"target": "ACTN1 C370", "log2 mean competition ratio": 0.315}, {"target": "ANAPC5 C203 (UniProt Q9UJX4)", "log2 mean competition ratio": 0.0534}, {"target": "ACTN1 C480", "log2 mean competition ratio": 0.981}, {"target": "AKAP10 C110 (UniProt O43572)", "log2 mean competition ratio": -0.4}, {"target": "ALDH9A1 C355 (UniProt P49189)", "log2 mean competition ratio": -0.111}, {"target": "ADAR C630 (UniProt P55265)", "log2 mean competition ratio": 0.0812}, {"target": "ALKBH4 C126 (UniProt Q9NXW9)", "log2 mean competition ratio": 0.423}, {"target": "ACTR10 C183 (UniProt Q9NZ32)", "log2 mean competition ratio": -0.0119}, {"target": "AGPAT5 C217 (UniProt Q9NUQ2)", "log2 mean competition ratio": 0.366}]}, {"compound": "ClCC(=O)N[C@H]1CCCc2ccccc12", "test": "log2 mean competition ratio of IA-DTB cysteine labelling (DMSO/compound) (log2 ratio); higher = stronger cysteine engagement by compound", "conditions": "200 µM; treatment time: 4 h; cell line lysate: HEK293T", "description": "as §1", "values": [{"target": "AIMP2 C143 (UniProt Q13155)", "log2 mean competition ratio": -0.441}, {"target": "ACSL4 C157 (UniProt O60488)", "log2 mean competition ratio": -0.4}, {"target": "ANKHD1 C535", "log2 mean competition ratio": -0.143}, {"target": "AFTPH C511 (UniProt Q6ULP2)", "log2 mean competition ratio": 0.0722}, {"target": "AGFG2 C30 (UniProt O95081)", "log2 mean competition ratio": 0.369}, {"target": "AKAP1 C389 (UniProt Q92667)", "log2 mean competition ratio": -0.0411}, {"target": "AHNAK C1900(C1967) (UniProt Q09666)", "log2 mean competition ratio": 0.00134}, {"target": "AHCYL1 C106 (UniProt O43865)", "log2 mean competition ratio": -0.274}, {"target": "AGPAT4 C270 (UniProt Q9NRZ5)", "log2 mean competition ratio": -0.139}, {"target": "AHCYL2 C187 (UniProt Q96HN2)", "log2 mean competition ratio": 0.0057}, {"target": "AMOT C781 (UniProt Q4VCS5)", "log2 mean competition ratio": -0.0654}, {"target": "ACTN1 C370", "log2 mean competition ratio": -0.273}, {"target": "ANAPC5 C203 (UniProt Q9UJX4)", "log2 mean competition ratio": -0.148}, {"target": "ACTN1 C480", "log2 mean competition ratio": 0.0781}, {"target": "AKAP10 C110 (UniProt O43572)", "log2 mean competition ratio": 0.0697}, {"target": "ALDH9A1 C355 (UniProt P49189)", "log2 mean competition ratio": -0.232}, {"target": "ADAR C630 (UniProt P55265)", "log2 mean competition ratio": 0.17}, {"target": "ALKBH4 C126 (UniProt Q9NXW9)", "log2 mean competition ratio": 0.148}, {"target": "ACTR10 C183 (UniProt Q9NZ32)", "log2 mean competition ratio": 0.361}, {"target": "AGPAT5 C217 (UniProt Q9NUQ2)", "log2 mean competition ratio": 0.0669}]}]}
